Experimental data published in patent EP2717940B1.
Results are given in words; binding and its absence hold for the method and conditions named. Some binding calls cover weakened binding; strength is not graded here.

Protein sequences, listed by entry. Tags and fused reporters are not part of them. Residues count along the entry.
UniProt P41597: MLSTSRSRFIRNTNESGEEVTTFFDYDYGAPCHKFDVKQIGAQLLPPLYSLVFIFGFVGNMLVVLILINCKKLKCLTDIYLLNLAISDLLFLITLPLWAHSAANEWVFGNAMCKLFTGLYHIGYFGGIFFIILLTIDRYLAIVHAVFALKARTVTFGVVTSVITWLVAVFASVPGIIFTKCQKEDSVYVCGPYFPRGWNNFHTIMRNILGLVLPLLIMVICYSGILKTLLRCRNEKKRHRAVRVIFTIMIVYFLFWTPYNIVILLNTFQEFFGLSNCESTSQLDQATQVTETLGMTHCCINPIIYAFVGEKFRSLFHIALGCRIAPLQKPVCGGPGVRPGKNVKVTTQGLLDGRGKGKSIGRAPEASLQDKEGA
UniProt P13500, residues 24-99: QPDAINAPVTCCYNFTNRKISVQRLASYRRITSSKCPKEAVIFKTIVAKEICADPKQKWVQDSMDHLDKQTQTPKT

Target: chemokine (C-C motif) receptor 2 (CCR2) on peripheral blood cells (human) (UniProt P41597)
Test: flow cytometry on monocytes of peripheral blood from IBD patients

binding: binds
Substance: biotinylated and Alexa647 Fluor labeled MCP-1 (from UniProt P13500 24-99) (ligand)
